# Data taken from patent US8937177B2, “Pyridazine compounds for controlling invertebrate pests” (BASF SE, priority 2010, dated 2015).
# Some entries share one result that the patent states for a list of compounds.
# Assays:
# Format in all cases: in vivo
# [1] = test system: Cotton aphid (Aphis gossypii, Mixed Life Stages); test: Cotton aphid spray test on cotton plants, mixed life stages; settings: 500 ppm, sprayed; determined after 5 days
# [2] = test system: Cowpea Aphid (Aphis craccivora); test: Cowpea aphid spray test on potted cowpea plants; settings: 500 ppm, sprayed; population reduction assessed after 24, 72 and 120 hours
# [3] = test system: Green Peach Aphid (Myzus persicae); test: Green peach aphid systemic test, artificial diet under membrane in 96-well plates; settings: 2500 ppm in aphid diet; 3 days
# [4] = test system: Vetch aphid (Megoura viciae); test: Vetch aphid bean leaf disk microtiter plate test; settings: test solution 2500 mg/l; leaf disks sprayed with 2.5 μl; 6 days
Compound,mortality in comparison with untreated controls [1],mortality in comparison with untreated controls [2],mortality in comparison with untreated controls [3],mortality [4]
Cc1nn(CC(F)(F)F)nc1C(=O)Nc1ccnnc1 [I.1],at least 75%,at least 75%,–,–
O=C(Nc1ccnnc1)c1cnns1 [II.1],–,at least 75%,–,–
Cc1nnn(CC(C)C)c1C(=O)N(C)c1ccnnc1 [II.8],at least 75%,at least 75%,–,–
Cc1nnn(CC(F)(F)F)c1C(=O)Nc1ccnnc1 [II.9],at least 75%,at least 75%,at least 75%,–
O=C(Nc1ccnnc1)c1csnn1 [III.1],–,at least 75%,at least 75%,–
COCCn1nnc(C(=O)Nc2ccnnc2)c1C [III.3],–,at least 75%,at least 75%,at least 75%
Cc1c(C(=O)Nc2ccnnc2)nnn1CC1CC1 [III.4],–,at least 75%,at least 75%,–
Cc1c(C(=O)Nc2ccnnc2)nnn1CC(C)C [III.5],–,at least 75%,at least 75%,at least 75%
Cc1c(C(=O)Nc2ccnnc2)nnn1CC(F)(F)F [III.6],at least 75%,at least 75%,at least 75%,–
Cc1c(C(=O)N(C)c2ccnnc2)nnn1CC1CC1 [III.8],at least 75%,at least 75%,at least 75%,–
Cc1c(C(=O)N(C)c2ccnnc2)nnn1CC(C)C [III.9],at least 75%,–,at least 75%,–
Cc1c(C(=O)N(C)c2ccnnc2)nnn1CC(F)(F)F [III.10],–,at least 75%,at least 75%,at least 75%
